The target in assay [1] is T1, cLUC-AtVDAC1 (Arabidopsis thaliana) (UniProt Q9SRH5).
T1 sequence: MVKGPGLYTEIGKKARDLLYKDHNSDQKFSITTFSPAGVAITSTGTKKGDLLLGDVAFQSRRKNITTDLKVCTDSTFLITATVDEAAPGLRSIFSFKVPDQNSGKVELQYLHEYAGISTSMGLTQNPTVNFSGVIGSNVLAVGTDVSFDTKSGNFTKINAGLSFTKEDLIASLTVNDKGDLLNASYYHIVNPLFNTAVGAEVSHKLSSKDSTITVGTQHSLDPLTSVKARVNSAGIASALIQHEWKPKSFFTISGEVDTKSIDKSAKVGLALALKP
Description: split reporter; luciferase complementation imaging (LCI); FT-nLUC and cLUC-AtVDAC1 transiently infiltrated into N. benthamiana leaves; luminescence detected with ROPER CA2048B; three biological replicates.

Amino acid sequences for entries named in this document (tags omitted).
UniProt Q9SXZ2: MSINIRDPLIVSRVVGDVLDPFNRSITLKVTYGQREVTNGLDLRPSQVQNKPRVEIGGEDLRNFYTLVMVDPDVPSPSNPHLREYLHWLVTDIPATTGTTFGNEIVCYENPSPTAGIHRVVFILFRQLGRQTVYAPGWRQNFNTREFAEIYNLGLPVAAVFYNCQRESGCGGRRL

Assay [2] deals with T2, AtVDAC1, bait of the yeast two-hybrid screening (Arabidopsis thaliana) (UniProt Q9SRH5).
T2 sequence: T1 sequence
Description: two-hybrid; yeast two-hybrid screening for interacting partners of AtVDAC1; library and vectors not described.

In assay [3] the target is T3, AtVDAC1, BiFC fusion in pDOE-03 (Arabidopsis thaliana) (UniProt Q9SRH5).
T3 sequence: T1 sequence
The experiment in a line: split reporter; BiFC with mVenus fragments (pDOE-03 vector) in Arabidopsis protoplasts.

Assay [4] deals with FLOWERING LOCUS T (FT), in pGBKT7 (Arabidopsis thaliana) (UniProt Q9SXZ2). The experiment in a line: two-hybrid; AtVDAC1 in pGADT7, FT in pGBKT7; Yeastmaker Yeast Transformation System 2 (Clontech); growth on SD/-Ade/-His/-Leu/-Trp; performed three times.

Results are given in words; binding and its absence hold for the method and conditions named. For some of these results: In cells and extracts the contact can be indirect. Some results given as binding are weak or reduced against the parent protein; the word gives no strength. For some of these results: Sequences can lack the tags named with a protein.

Consider FT-nLUC (from UniProt Q9SXZ2 1-175), for which the binding result in assay [1] was “binds”.

Take “FT, interactor found in the yeast two-hybrid screening (from UniProt Q9SXZ2 1-175)”: the binding entry in assay [2] is listed as “binds”.

On to “FT, BiFC fusion in pDOE-03 (from UniProt Q9SXZ2 1-175)”, for which the binding result in assay [3] is “binds”.

B1: AtVDAC1 (Arabidopsis thaliana voltage-dependent anion channel 1), in pGADT7 (protein, UniProt Q9SRH5 1-276)
chain: T1 sequence
For the molecule B1, the binding result in assay [4] was “binds”.

These data come from PMC8584032.
